Reference: patent US20230076977A1, “UTROPHIN UPREGULATION COMPOUNDS FOR DUCHENNE MUSCULAR DYSTROPHY THERAPY” (THE TRUSTEES OF THE UNIVERSITY OF PENNSYLVANIA, priority 2020, published 2023)
At least one structure is not confirmed: it was looked up by name or label, or the drawing left a doubt.

How the values were obtained:
[1] = tested on: CMV-driven luciferase gene; assay: Counterscreening assay: C2C12 line stably expressing only the CMV-driven luciferase gene; format: cell-based; details: dose-response 5 nM to 10 μM, FIG. 6
Method: The construct for the HTS assay was generated by cloning the 5′- and 3′-UTRs of human utrophin into pGL4:50-hygro (Promega, Madison, Wis.) at the 5′ and 3′ of the luciferase coding sequence and has been described previously by Moorwood. […] For the counterscreening assay, the pGL4:50-hygro plasmid was used alone. Low passage C2C12 cells obtained from ATCC were transfected with either constructs, stably selected with 500 μg/mL hygromycin and subcloned using two rounds of serial dilutions to isolate single cell-derived colonies in a 96 wells plate format. […]
The construct for generating the screening C2C12 cell line carrying the 5′ and 3′UTR of the human utrophin gene is described by Moorwood. […] To determine optimal conditions for the implementation in a 384-wells high-throughput format, evaluated were DMSO tolerance, optimal cell density and incubation time (FIG. 5A-5C).
A first criterion for evaluating the performance of the selected hits was whether their activity was dose-dependent. […] By modeling each dose-response trace with a 4-parameter logistic model applied to the Z— score values (FIG. 2B), the EC50 of each molecule was calculated.
Cells were allowed to attach overnight at 37° C., 5% CO2 in a humidified chamber. […] Luminescence was measured on an EnVisionXcite Multilabel Plate Reader (PerkinElmer), using ultrasensitive luminescence measurement technology.

[2] = tested on: utrophin protein in C2C12 cells; assay: Utrophin western blot in C2C12 cells (endogenous protein expression); format: cell-based; details: hits with H2LPS equal to 0
Method: The 10 highest scoring hits were selected from this subset for performing in vitro validation. C2C12 cells were treated with 1 μM concentrations of the selected hits for 24 hours, followed by western blot evaluation of utrophin levels as an orthogonal assay for endogenous protein expression. […] Panobinostat, an FDA-approved non-selective HDAC inhibitor for cancer treatment, increased utrophin levels by 1.9-fold. […] AR-42 (S2244), another HDAC inhibitor with proven preclinical efficacy in contrasting cancer-induced cachexia, increased utrophin by 2.3-fold and had the second highest H2LPS. Consistent with the calculated HPS, the highest scoring hit, TSA (S1045), had also the highest magnitude of protein upregulation (3.9-fold) followed by PCI-24781 (S1090; 3.7-fold). Importantly, high H2LPS was generally correlated with confirmation in WB assays (FIG. 2E).
Total RNA was extracted from TA muscle samples with RNAeasy kit (Qiagen, USA) and reverse transcribed with random hexamers. qPCR was performed using Taqman probes for Utrophin (Assay ID Mm01168846_ml) and β-actin. Muscle tissue samples were lysed with TNEC buffer (50 mM Tris-HCl, pH 8.0; 150 mMNaCl; 1% NP40; 2 mM EDTA) buffer containing complete protease inhibitor cocktail (Roche, Basel, Switzerland). […]

## C/C=C1\NC(=O)[C@H]2CSSCC/C=C/[C@H](CC(=O)N[C@H](C(C)C)C(=O)N2)OC(=O)[C@H](C(C)C)NC1=O [Romidepsin]
[1]
  luciferase activity in the counterscreening assay: significant luciferase activity
[2]
  utrophin protein levels in a separate assay (data not shown): failed to increase utrophin protein levels
